Laboratory results: paper PMC7819943, “Rice protein-binding microarrays: a tool to detect cis-acting elements near promoter regions in rice”
The other results are listed elsewhere or left out.

By UniProt entry, the sequences of proteins in these tests, tags left out.
UniProt Q0JBA9, entry or part of it: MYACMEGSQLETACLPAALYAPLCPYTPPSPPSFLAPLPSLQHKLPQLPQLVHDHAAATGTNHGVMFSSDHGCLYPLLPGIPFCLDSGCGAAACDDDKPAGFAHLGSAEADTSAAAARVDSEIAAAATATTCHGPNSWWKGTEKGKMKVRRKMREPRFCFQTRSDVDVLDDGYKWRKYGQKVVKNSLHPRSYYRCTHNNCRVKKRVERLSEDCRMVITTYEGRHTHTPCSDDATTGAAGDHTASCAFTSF

These sequences were tested against OsWRKY34 (Oryza sativa, UniProt Q0JBA9 1-250) (assay: protein-binding microarray (RPBM); PBS, 2% BSA, 51.3 ng/ul salmon testes DNA, 50 uM zinc acetate, 200 nM TF, 25 C, 1 h; high values mean tight binding). Settings: protein: recombinant; tags: N-terminal polyhistidine and DsRed monomer fusion (pET32a); label: CyDye5-dUTP incorporated in the synthesized complementary strand; 3' TTTTT single-stranded linker to array surface; dsDNA, one strand shown.
Outline: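 Per-feature fluorescence intensity (arbitrary units), read on an Axon 4000B scanner, is the binding signal. Transcription factors carrying an N-terminal polyhistidine tag and DsRed fusion were expressed in E. coli BL21-CodonPlus and purified on Ni–NTA. A custom Agilent array, made double-stranded by primer extension with Cy5-dUTP and blocked with 2% BSA, was incubated with 200 nM protein in PBS, 2% BSA, salmon testes DNA and 50 µM zinc acetate at 25 °C for 1 h and then washed.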

Sequence	binding signal
AGGTTGTTCTTCTTCGACATCTTCCTCGCCGCCAACCGCCCGGAGTCACCTAGTGCAG	13100 fluorescence intensity (a.u.)
AAAAAGCTTGCAAGTCTAAGTCTTTTTTTTTTTTGCATCACGGAGTCACCTAGTGCAG	9290 fluorescence intensity (a.u.)
CTAATCTACCCCAACATCCCAACTTTGACCGGGCCTCGATCGGAGTCACCTAGTGCAG	8160 fluorescence intensity (a.u.)
AATCATCTCTATACATGTATCGTCCTGATATTTCTGCACGCGGAGTCACCTAGTGCAG	9870 fluorescence intensity (a.u.)
TCCGCCGAGCCCTAGTTTCCGCCGCCGCCGCCGCCGCGCCCGGAGTCACCTAGTGCAG	9130 fluorescence intensity (a.u.)
TATGATTGACATGTGAGCTCCACCACTCTCGGGCCCACATCGGAGTCACCTAGTGCAG	8620 fluorescence intensity (a.u.)
CCGTTTGCTTCTAACTACCGCGGGGCCAACGAACTTTTCCCGGAGTCACCTAGTGCAG	8950 fluorescence intensity (a.u.)
TTCCACACAATGTGCTAAAAGTTTGACTTTTACACGTCCACGGAGTCACCTAGTGCAG	14500 fluorescence intensity (a.u.)
GGCTCCAAATCATCTGCCTTCATTGTCAGGCTTCAGTAATCGGAGTCACCTAGTGCAG	10400 fluorescence intensity (a.u.)
CATCCTCCTTCCGGAACCTTCTAGAAGGTTCTCCTCGTACCGGAGTCACCTAGTGCAG	8530 fluorescence intensity (a.u.)
TTCCCACAACTGATTTTTCACAGCCGCTTTTCCACAGCCCCGGAGTCACCTAGTGCAG	9090 fluorescence intensity (a.u.)
CTCCACATATTTTGGCGCTGACACTTCTATCGGCTTCTTTCGGAGTCACCTAGTGCAG	9980 fluorescence intensity (a.u.)
ATATATTAGAGCTCTTTAATTTGTTTCATGTTCAGTACGTCGGAGTCACCTAGTGCAG	10600 fluorescence intensity (a.u.)
AACATAACCAATTGACCTTGACCATATCATCAATCGAACCCGGAGTCACCTAGTGCAG	8760 fluorescence intensity (a.u.)
GACACATCGCGTACTATCTCTAGGCCTGAGCGTTTAGTAACGGAGTCACCTAGTGCAG	10300 fluorescence intensity (a.u.)
CCTTTTTGGGTCTCCATTTCCTTGTGTCCTCGAAGCATATCGGAGTCACCTAGTGCAG	9470 fluorescence intensity (a.u.)
TCAGGCATCCATTTCGACACTTGTAACACATGTTACTTTCCGGAGTCACCTAGTGCAG	10500 fluorescence intensity (a.u.)
ATCTCAGCCTCCGTTTTCATTAATGACCTAATCTCCAACTCGGAGTCACCTAGTGCAG	9340 fluorescence intensity (a.u.)
TCCCATTTGACCACCCCACCCACGCCGCTACGCGCCTTCCCGGAGTCACCTAGTGCAG	10100 fluorescence intensity (a.u.)
GCATAGTTGCATTCCCGACTTCTTATTGACTTTTTTTTTACGGAGTCACCTAGTGCAG	9530 fluorescence intensity (a.u.)
CCTGTCCGGTTCTTGTTCTGGTGCTGCTTTGCTCGACACCCGGAGTCACCTAGTGCAG	13800 fluorescence intensity (a.u.)

Sequence	binding signal
TTTGTTCGATTTGTTGAGATTTACGCTGTTGATTTTATGACGGAGTCACCTAGTGCAG	9550 fluorescence intensity (a.u.)
GGGCTTTGGTGGGCTTTAAAGAACTCGTAGTATAGCTATTCGGAGTCACCTAGTGCAG	8860 fluorescence intensity (a.u.)
AGTGCTTTAGGTTCGTTCAGCTCGTTTCACCCGTAAGCCTCGGAGTCACCTAGTGCAG	8360 fluorescence intensity (a.u.)
CTCCCTTTTCTTTTCTTCCTTTTTGGCCAAATTTTCAAATCGGAGTCACCTAGTGCAG	9060 fluorescence intensity (a.u.)
TCCTAACCTCTACTTATTTTTCATGTGCAGTTTTCCGAACCGGAGTCACCTAGTGCAG	12500 fluorescence intensity (a.u.)
GCCATTTCGCCGAGCGCCTTCCCGGCGAGCCCGCGCTCCACGGAGTCACCTAGTGCAG	8110 fluorescence intensity (a.u.)
TCTTGCTTTCATATTGGCCCACTTGAGAATTCTCACTCTTCGGAGTCACCTAGTGCAG	14200 fluorescence intensity (a.u.)
TCAGGGGTATTGAAGGGATTGAGTAAATTTTCAGGGGTATCGGAGTCACCTAGTGCAG	9330 fluorescence intensity (a.u.)
CTCCGATCCGGTTACTCTATCCATGTCGCACTCTTTCTCGCGGAGTCACCTAGTGCAG	11500 fluorescence intensity (a.u.)
ATAACATGGTCTTTATGAATGCGTTGGTTTTATGTTATACCGGAGTCACCTAGTGCAG	8070 fluorescence intensity (a.u.)
ACTATTCCACTCTCTAACCTTATCATCACTTCAATACACACGGAGTCACCTAGTGCAG	8030 fluorescence intensity (a.u.)
TGAGTTTTTACTTGCAACGTTTGACCACTCGTCTTATTCACGGAGTCACCTAGTGCAG	11400 fluorescence intensity (a.u.)
CGTCCACGGCCCATTTTTCATTCACGGGCCCGTACTGACACGGAGTCACCTAGTGCAG	8910 fluorescence intensity (a.u.)
GGTTGGGGAAGTATGTGCGCAAAAAACAAGGGATTTTTCTCGGAGTCACCTAGTGCAG	13700 fluorescence intensity (a.u.)
ACTTTTTTTTTTCTACTTGTTTGATATACCTGTCAGCATGCGGAGTCACCTAGTGCAG	9910 fluorescence intensity (a.u.)
AATACTCCCTCCGTTTCGAAATATTTGACGCCGTTGACTTCGGAGTCACCTAGTGCAG	12400 fluorescence intensity (a.u.)
GGCCCACCTGCTTTAACCGTCGTCTTCTCCATTTCCGTTTCGGAGTCACCTAGTGCAG	8620 fluorescence intensity (a.u.)
TTTTTTTCCAATGTCGCATGTGTGTGAAACATTTTTTACTCGGAGTCACCTAGTGCAG	8690 fluorescence intensity (a.u.)
GGTCCCACATTTGCTGAATTTTCTCGTTTCTTCCGACATACGGAGTCACCTAGTGCAG	9760 fluorescence intensity (a.u.)
GGGAGGGGAGCGGCTGCGCACGCCGGCGAGCGCTGTGAATCGGAGTCACCTAGTGCAG	9750 fluorescence intensity (a.u.)
CACACTACTACTACTGTCTACTGCCACGCCGCCGTAACCACGGAGTCACCTAGTGCAG	8190 fluorescence intensity (a.u.)

Not a retest: an excerpt of the list.
Sequence	binding signal
TTTGTTCGATTTGTTGAGATTTACGCTGTTGATTTTATGACGGAGTCACCTAGTGCAG	9550 fluorescence intensity (a.u.)
GGGCTTTGGTGGGCTTTAAAGAACTCGTAGTATAGCTATTCGGAGTCACCTAGTGCAG	8860 fluorescence intensity (a.u.)
